Assay results reported in PubChem BioAssay (Tox21).
Values joined by “and” are separate entries in the source; they are usually repeats but may differ in a detail not shown here. Equal entries are not always repeated. The shares of active, inactive and inconclusive entries below differ from those in the screen. For part of these data: Potencies of inconclusive entries are doubtful fits and often do not repeat. Active and inactive are the calls of the source. Unless noted, the call rests on the fitted dose curve.

The chains behind the UniProt entries cited, without tags or fusion partners. Where a name states a change or a piece, a line headed by the entry shows the natural chain unless it says otherwise.
UniProt P14416, whole entry, looked up: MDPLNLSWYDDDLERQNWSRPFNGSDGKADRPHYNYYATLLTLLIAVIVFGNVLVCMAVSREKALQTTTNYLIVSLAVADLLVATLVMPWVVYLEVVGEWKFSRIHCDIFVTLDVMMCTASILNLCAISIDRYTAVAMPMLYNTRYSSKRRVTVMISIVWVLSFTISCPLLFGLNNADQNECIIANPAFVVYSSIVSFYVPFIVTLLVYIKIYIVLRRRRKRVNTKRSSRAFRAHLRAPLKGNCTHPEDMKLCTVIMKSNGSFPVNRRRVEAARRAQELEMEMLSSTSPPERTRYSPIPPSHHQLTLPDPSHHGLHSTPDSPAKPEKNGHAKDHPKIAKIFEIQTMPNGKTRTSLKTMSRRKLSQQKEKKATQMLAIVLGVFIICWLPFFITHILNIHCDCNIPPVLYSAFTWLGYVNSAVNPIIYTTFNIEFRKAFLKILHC
UniProt P11229: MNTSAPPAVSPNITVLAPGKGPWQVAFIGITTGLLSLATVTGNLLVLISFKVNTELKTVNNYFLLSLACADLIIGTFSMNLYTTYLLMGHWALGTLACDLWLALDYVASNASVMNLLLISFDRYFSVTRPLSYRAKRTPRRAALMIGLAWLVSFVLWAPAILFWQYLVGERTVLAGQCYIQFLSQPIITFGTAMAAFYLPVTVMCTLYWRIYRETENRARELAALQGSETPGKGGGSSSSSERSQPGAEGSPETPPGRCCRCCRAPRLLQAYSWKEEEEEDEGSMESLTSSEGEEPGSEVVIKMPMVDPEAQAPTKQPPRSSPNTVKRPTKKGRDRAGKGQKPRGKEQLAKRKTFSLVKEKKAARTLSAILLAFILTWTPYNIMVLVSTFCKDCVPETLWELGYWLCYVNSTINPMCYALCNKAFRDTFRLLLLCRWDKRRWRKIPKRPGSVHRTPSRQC
UniProt P28223, whole entry, looked up: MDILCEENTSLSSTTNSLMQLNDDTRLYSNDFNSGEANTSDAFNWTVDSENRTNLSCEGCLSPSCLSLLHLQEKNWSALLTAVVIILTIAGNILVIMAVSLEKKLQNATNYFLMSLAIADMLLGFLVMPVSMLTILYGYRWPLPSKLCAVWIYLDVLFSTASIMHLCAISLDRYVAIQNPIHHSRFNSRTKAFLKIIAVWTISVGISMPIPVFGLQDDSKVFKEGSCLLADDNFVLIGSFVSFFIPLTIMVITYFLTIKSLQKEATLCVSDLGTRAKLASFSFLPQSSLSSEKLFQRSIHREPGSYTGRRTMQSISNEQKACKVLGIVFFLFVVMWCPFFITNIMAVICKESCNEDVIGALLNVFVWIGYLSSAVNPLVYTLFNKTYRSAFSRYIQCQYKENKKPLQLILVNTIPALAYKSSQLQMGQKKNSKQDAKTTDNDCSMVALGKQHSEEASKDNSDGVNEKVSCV

Legend:
[1] = p53 small molecule agonists, cell-based qHTS assay with human liver microsomes (AID 1963577); conditions: HCT-116 p53RE-bla with human liver microsomes, ratio, 16 h; activation: at 66 µM (top of the series) unless noted; further: potency means the concentration at half of the fitted maximal effect;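 on activation: p53 response element beta-lactamase reporter cells with liver microsomes plus NADPH; on the % scale 0 is the no-effect control and ±100 the full control effect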
In short: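 p53RE-bla cells; 5 h settle, 37 C/5% CO2; cpd + HLM 0.5 mg/mL + NADPH 0.5 mg/mL (final); 16 h 37 C; LiveBLAzer 2 h RT dark; fluorescence readout.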

[2] = cAMP Responsive Elements (CRE) small molecule agonists, cell-based qHTS assay (AID 1963590); conditions: CRE-bla HEK293T, beta-lactamase FRET ratio, 3 h; activation: at 92.4 µM (top of the series) unless noted; further: potency means the concentration at half of the fitted maximal effect
In short: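 CRE-bla HEK 293T cells, 2,000/well in DMEM with 10% dialyzed FBS and 25 mM HEPES, pre-incubated 18 h at 37 C, then exposed to compound 3 h at 37 C. Beta-lactamase reporter read with LiveBLAzer B/G FRET substrate after 2 h at room temperature.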

[3] = cAMP Responsive Elements (CRE) small molecule antagonists, cell-based qHTS assay (AID 1963591; active means well fitted inhibition curve with a large enough effect in the signal ratio in the repeat runs, not every such curve was filed as active; inconclusive means weak or mixed curves, or effect the other way; the % refers to the signal ratio; further: potency means the concentration at half of the fitted maximal effect; on activity change, negative = inhibition: on the % scale 0 is the no-effect control and ±100 the full control effect); conditions: CRE-bla HEK293T, beta-lactamase FRET ratio; activity change, negative = inhibition: at 92.4 µM (top of the series) unless noted
In short: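 CRE-bla HEK293T cells plated 18 h, then given compound plus NKH477 at 0.25 uM final for 3 h at 37C. Beta-lactamase reporter read with LiveBLAzer B/G FRET substrate after 2 h at room temperature.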

[4] = molecular target: Beta-2 adrenergic receptor (Homo sapiens) (UniProt P07550); experiment: Adrenergic beta2 receptor (ADRB2) small molecule agonists, cell-based qHTS assay (AID 1963593); conditions: CHO-ADRB2 cells, cAMP HTRF, 30 min; activation: at 92.4 µM (top of the series) unless noted; further: potency means the concentration at half of the fitted maximal effect;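 on activation: CHO cells stably overexpressing human ADRB2; on the % scale 0 is the no-effect control and ±100 the full control effect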
In short: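 CHO cells stably over-expressing ADRB2 were plated overnight at 37C, then dosed with compounds plus a stimulation mix containing 100uM IBMX and 25uM Ro-20-1724 for 0.5hr at room temperature. cAMP was measured by HTRF competition, 1hr.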

[5] = molecular target: D(2) dopamine receptor (Homo sapiens) (UniProt P14416); experiment: Dopamine D2 receptor (DRD2) small molecule antagonists, cell-based qHTS assay (AID 1963595; active means well fitted inhibition curve with a large enough effect in the signal ratio in the repeat runs, with a control signal flat; inconclusive means weak or mixed curves, or effect the other way; the % refers to the signal ratio; further: on the % scale 0 is the no-effect control and ±100 the full control effect); conditions: HEK293-DRD2 cAMP HTRF antagonist mode; activity change, negative = inhibition: at 92.4 µM (top of the series) unless noted
In short: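 Stable D2 receptor HEK293 line, 24 h after seeding. Compound preincubated 10 min, then quinpirole (12 nM) with forskolin analogue NKH477 (200 nM), 30 min, room temperature. Detection by time-resolved FRET of cAMP.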

[6] = molecular target: Muscarinic acetylcholine receptor M1 (Homo sapiens) (UniProt P11229); experiment: Cholinergic receptor muscarinic 1 (CHRM1) small molecule antagonists, cell-based qHTS assay (AID 1963588); further: potency means the concentration at half of the fitted maximal effect; nearly all actives have a fitted effect of over 40% in size
In short: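 CHRM1-CHO calcium-flux assay, antagonist mode. Cells were seeded 18 h, dye-loaded 1 h at 37 C and given compound for 5 min at RT, then acetylcholine was added at 50nM. FDSS fluorescence was read 3 min; 15 concentrations, three runs.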

[7] = molecular target: 5-hydroxytryptamine receptor 2A (Homo sapiens) (UniProt P28223); experiment: 5-hydroxytryptamine receptor 2A (HTR2A) small molecule agonists, cell-based qHTS assay (AID 1963587); conditions: HTR2A-CHO cells, calcium flux fluorescence, agonist mode; activation: at 76.8 µM (top of the series); further: on the % scale 0 is the no-effect control and ±100 the full control effect; nearly all actives have a fitted effect of over 30% in size
In short: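 HTR2A-CHO cells, plated 18 h at 37 C/5% CO2, dye-loaded 1 h at 37 C; compounds in DMSO added by pin tool (agonist mode). Intracellular calcium flux read as kinetic fluorescence on FDSS over 2 min at 1 s intervals.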

[8] = p53 small molecule agonists, cell-based qHTS assay with rat liver microsomes (AID 1963578); conditions: HCT-116 p53RE-bla, beta-lactamase ratio, 16 h; activation: at 66 µM (top of the series) unless noted; further: potency means the concentration at half of the fitted maximal effect
In short: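 Rat liver microsome activation: microsomes 0.5 mg/mL, NADPH 0.5 mg/mL final; p53RE-bla cells, 16 h 37 C; LiveBLAzer readout, 2 h RT dark.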

[9] = p53 small molecule agonists, cell-based qHTS assay (AID 1963582; active means well fitted activation curve with a large enough effect in the signal ratio in the repeat runs, not every such curve was filed as active; inconclusive means weak or mixed curves; the % refers to the signal ratio; further: potency means the concentration at half of the fitted maximal effect); conditions: HCT-116 p53RE-bla reporter, beta-lactamase FRET ratio, 16 h; activation: at 66 µM (top of the series) unless noted
In short: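 p53RE-bla reporter cells, compounds added in DMSO after 5 h plating, incubated 16 h at 37 C. Beta-lactamase read via 2 h room-temperature LiveBLAzer B/G FRET substrate, fluorescence intensity.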

[10] = p53 small molecule agonists, cell-based qHTS assay with human liver microsomes: qHTS cell viability counter screen (AID 1963579); further: potency means the concentration at half of the fitted maximal effect; nearly all actives have a fitted effect of over 45% in size
In short: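 Luminescent CellTiter-Glo read-out, 30 min at room temperature, gauged cytotoxicity in p53RE-bla cells exposed 16 h at 37 C to DMSO-dissolved compounds with metabolic activation by human liver microsomes and NADPH, each 0.5 mg/mL final.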

[11] = p53 small molecule agonists, cell-based qHTS assay with rat liver microsomes: qHTS cell viability counter screen (AID 1963580); further: potency means the concentration at half of the fitted maximal effect; nearly all actives have a fitted effect of over 45% in size
In short: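 In HCT-116 cells carrying a p53 response element-bla reporter, compounds were metabolically activated in situ by rat liver microsomes with NADPH over 16 h. Cell ATP content then served as the cytotoxicity measure.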

[12] = p53 small molecule agonists, cell-based qHTS assay: qHTS cell viability counter screen (AID 1963581); further: potency means the concentration at half of the fitted maximal effect; nearly all actives have a fitted effect of over 45% in size
In short: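 p53RE-bla HCT-116 cells, compounds added 5 h after plating and incubated 16 h at 37 C. Cytotoxicity measured in the same wells as intracellular ATP by CellTiter-Glo luminescence after 30 min at room temperature.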

[13] = molecular target: 5-hydroxytryptamine receptor 2A (Homo sapiens) (UniProt P28223); experiment: 5-hydroxytryptamine receptor 2A (HTR2A) small molecule antagonists, cell-based qHTS assay (AID 1963586); further: potency means the concentration at half of the fitted maximal effect; nearly all actives have a fitted effect of over 45% in size
In short: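 Antagonist-mode intracellular calcium assay: DOI (4 nM) added after 5 min compound pre-incubation at room temperature to dye-loaded HTR2A-CHO cells. Fluorescence followed for 3 min, sampled every second.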

[14] = molecular target: D(2) dopamine receptor (Homo sapiens) (UniProt P14416); experiment: Dopamine D2 receptor (DRD2) small molecule agonists, cell-based qHTS assay (AID 1963594); conditions: HEK293-DRD2 cAMP HTRF, agonist mode, 30 min; activation: at 92.4 µM (top of the series) unless noted; further: on the % scale 0 is the no-effect control and ±100 the full control effect; nearly all actives have a fitted effect of over 35% in size
In short: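 HEK293 cells stably expressing DRD2 were cultured 24 h at 37 C, then given Ro20-1724 (0.1 mM final) and compounds for 10 min at room temperature. NKH477 (200nM) was then added for 30 min. cAMP was read by HTRF.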

SMILES: CCC(C)c1ccc(O)cc1 (stereo not given)
- Potency [1]: inactive
- Potency [2]: inconclusive: 69.2 µM [rising, single point] and inconclusive: 68.6 µM [rising, single point]
- Potency [3]: inconclusive: 68.6 µM [single point]
- activity change, negative = inhibition [3]: inconclusive: -28%
- activation [4]: inconclusive: -16.8%
- Potency [5]: inactive

SMILES: O=C(Oc1ccc(Br)cc1)N1CCN2CCC1CC2
- Potency [1]: inconclusive: 40.8 µM [fluorescent, partial curve]
- Potency [6]: inconclusive: 42.1 µM [inhibitor, single point]
- Potency [4]: inconclusive: 9.69 µM [inhibitor, single point]

SMILES: CCCOc1nn(C(=O)NS(=O)(=O)c2ccccc2C(=O)OC)c(=O)n1C
- Potency [1]: inconclusive: 22.9 µM [fluorescent, partial curve]
- Potency [2]: inactive

SMILES: CCC(=O)O[C@@H]1C=C2CCC3C(CCC4(C)C3CC[C@@H]4OC(=O)CC)C2CC1 (stereo not given in full)
- Potency [1]: inactive
- Potency [3]: inactive
- Potency [4]: inactive
- Potency [5]: inactive

SMILES: C[C@H](CN1CCOCC1)C(C(=O)N1CCCC1)(c1ccccc1)c1ccccc1
- Potency [1]: inconclusive: 70 µM [rising, partial curve, poor fit]
- Potency [6]: inconclusive: 28.8 µM [inhibitor, single point]
- Potency [2]: inconclusive: 66.3 µM [rising, partial curve, poor fit]

SMILES: Cn1cc(-c2ccccc2)c(=O)c(-c2cccc(C(F)(F)F)c2)c1
- Potency [7]: inactive

SMILES: O=C(O)CCCOc1ccc(Cl)cc1Cl
- Potency [7]: inactive

SMILES: C#CC1(O)CCCCC1
- Potency [8]: inconclusive: 18.2 µM [fluorescent, single point]
- Potency [9]: inactive
- Potency [4]: inactive

SMILES: N#Cc1sc2c(=O)c3ccccc3c(=O)c=2sc1C#N
- Potency [10]: active: 5.13 µM
- Potency [11]: active: 16.2 µM
- Potency [12]: active: 4.08 µM
- Potency [9]: inconclusive: 9.13 µM [falling, single point]
- Potency [13]: inconclusive: 33.4 µM [inhibitor, partial curve, poor fit]
- Potency [2]: inconclusive: 30.6 µM [rising, partial curve]
- Potency [3]: inconclusive: 61.1 µM [partial curve]
- activation [4]: inconclusive: 4.12%

SMILES: CCN(CC)C(=O)SCc1ccc(Cl)cc1
- Potency [8]: inconclusive: 16.7 µM [fluorescent, partial curve] and inconclusive: 1.62 µM [fluorescent, full curve]
- Potency [13]: inconclusive: 19.4 µM [inhibitor, partial curve, poor fit] and inconclusive: 472 nM [inhibitor, full curve, poor fit]
- Potency [6]: inconclusive: 13.7 nM [inhibitor, full curve] and inconclusive: 37.5 µM [inhibitor, partial curve, poor fit]
- activation [4]: inconclusive: -17% and inconclusive: -19.3%

SMILES: CCOC(=O)COc1ccc(Cl)cc1Cl
- Potency [8]: inconclusive: 18.2 µM [rising, single point]
- Potency [2]: inconclusive: 30.6 µM [rising, partial curve]
- Potency [3]: inactive

SMILES: COP(=S)(OC)Oc1c(Cl)cc(C)cc1Cl
- Potency [8]: inconclusive: 4.08 µM [fluorescent]
- Potency [4]: inactive

SMILES: CCCCCBr
- Potency [8]: inactive
- Potency [3]: inactive
- Potency [4]: inactive

SMILES: NNC(=O)c1ccccc1
- Potency [10]: active: 41.9 µM

SMILES: Cc1cccc(OP(=O)(Oc2cccc(C)c2)Oc2cccc(C)c2)c1
- activation [8]: inconclusive: 26.3%
- Potency [4]: inconclusive: 21.7 µM [inhibitor, partial curve, poor fit]

SMILES: CC1(C)[C@H](C=C(Cl)Cl)[C@@H]1C(=O)O[C@@H](C#N)c1cccc(Oc2ccccc2)c1
- Potency [8]: inconclusive: 18.2 µM [rising, single point]
- Potency [6]: inconclusive: 2.37 µM [inhibitor, full curve, poor fit]
- Potency [4]: inactive

SMILES: CCOC(=O)CCN(SN(C)C(=O)Oc1cccc2c1OC(C)(C)C2)C(C)C
- Potency [8]: inconclusive: 16.2 µM [fluorescent, partial curve]
- Potency [2]: inconclusive: 61.1 µM [rising, partial curve, poor fit]
- activity change, negative = inhibition [3]: inconclusive: 20%

SMILES: CC(C)C1(C)N=C(c2nc3ccccc3cc2C(=O)O)NC1=O (stereo not given)
- Potency [8]: inconclusive: 36.3 µM [activator, partial curve]
- Potency [4]: inconclusive: 0.616 µM [inhibitor, partial curve, poor fit]
- activation [4]: inconclusive: -9.89%
- Potency [14]: inactive

SMILES: CC(O)CN(CC(C)O)CC(C)O (stereo not given)
- Potency [8]: inconclusive: 51.6 µM [fluorescent, single point]
- activation [4]: inconclusive: -26.1%

SMILES: Cc1cccc2sc3nncn3c12
- Potency [8]: inconclusive: 16.2 µM [activator, single point]
- Potency [4]: inactive
